Source: PubChem BioAssay AID248 (DTP/NCI, 2004)
The list does not hold the whole screen: it is rich in T/C values a quarter to a half above the control, in often repeated tests (any T/C) and in doses without a T/C. Other doses and runs of a compound stand elsewhere. T/C gives the treated animals as a percentage of the vehicle group. Some entries give survivors of the animals treated and no T/C: the source files T/C as zero there, which appears to mark a toxic dose or a test without result, not a measured value. Some survivor counts are full or nearly so, which does not show that the dose was tolerated: survival well below the control is almost never listed, so the zero probably covers shortened survival too. Counts of survivors are from the toxicity check (mostly the fifth day) where no day follows; animals may have died later. Schedule codes are those of the source, read here as Q, the interval in days (D) or hours (H), X, the number of doses. Some entries hold several experiments; their values stand side by side, smallest first. Where survival is the endpoint, the PubChem record calls one and a half times the control and up active, and a quarter to a half above the control has no call in these data; cut-offs in other NCI protocols can differ. Some T/C values carry the count of animals alive at the toxicity check (mostly the fifth day); without a count, all were alive then. Some schedules carry Z or #; the key to these is not given. Some structures stand for samples that the source files as different forms (salt, stereo form or complex); doses refer to the form tested.

Test system: L1210 leukemia ip in BDF1 mice, survival T/C
Experiment: NCI In Vivo Anticancer Drug Screen. Data for tumor model L1210 Leukemia (intraperitoneal) in B6D2F1 (BDF1) mice
Conditions: T/C endpoint: mean survival time, higher T/C = longer survival
[1] = dose: 400.0 mg/kg/injection, schedule: Q04DX003 (ip), vehicle: Klucel (hydroxypropylcellulose) (HPC)
[2] = dose: 12.5 mg/kg/injection, schedule: Q01DX009 (ip), vehicle: Klucel (hydroxypropylcellulose) (HPC)
[3] = dose: 25.0 mg/kg/injection, schedule: Q01DX009 (ip), vehicle: Klucel (hydroxypropylcellulose) (HPC)
[4] = dose: 200.0 mg/kg/injection, schedule: Q04DX003 (ip), vehicle: Klucel (hydroxypropylcellulose) (HPC)
[5] = dose: 50.0 mg/kg/injection, schedule: Q01DX001 (ip), vehicle: saline
[6] = dose: 200.0 mg/kg/injection, schedule: Q01DX001 (ip), vehicle: saline
[7] = dose: 200.0 mg/kg/injection, schedule: Q01DX005 (ip), vehicle: saline
[8] = dose: 400.0 mg/kg/injection, schedule: Q01DX001 (ip), vehicle: saline

COC(=O)C1(N)CCCC1
T/C (dose: 45.0 mg/kg/injection, schedule: Q01DX009 (ip), vehicle: saline): 126 % of control | T/C (dose: 50.0 mg/kg/injection, schedule: Q01DX009 (ip), vehicle: saline): 130 % of control | T/C (dose: 66.0 mg/kg/injection, schedule: Q01DX009 (ip), vehicle: saline): 128 and 133 % of control | T/C (dose: 66.0 mg/kg/injection, schedule: Q01DX Z (ip), vehicle: saline): 131 % of control | T/C (dose: 100.0 mg/kg/injection, schedule: Q01DX009 (ip), vehicle: saline): 129 and 147 % of control | T/C (dose: 100.0 mg/kg/injection, schedule: Q01DX Z (ip), vehicle: saline): 136 % of control | T/C (dose: 150.0 mg/kg/injection, schedule: Q01DX009 (ip), vehicle: saline): 145 % of control | T/C [1]: 141 and 148 % of control

Oc1ccccc1C=NCCN1CC1.Oc1ccccc1C=NCCN1CC1.[Co+2]
survivor count (dose: 100.0 mg/kg/injection, schedule: Q04DX002 (ip), vehicle: saline): 2 of 3 | survivor count (dose: 200.0 mg/kg/injection, schedule: Q04DX002 (ip), vehicle: saline): 0 of 3 | survivor count (dose: 400.0 mg/kg/injection, schedule: Q04DX002 (ip), vehicle: saline): 0 of 3

CCN(CCP(c1ccccc1)c1ccccc1)CCP(c1ccccc1)c1ccccc1
T/C [2]: 127 and 140 % of control [5 of 6 alive] | survivor count (dose: 25.0 mg/kg/injection, schedule: Q01DX001 (ip), vehicle: Klucel (hydroxypropylcellulose) (HPC)): 6 of 6 | T/C [3]: 125 % of control | survivor count (dose: 50.0 mg/kg/injection, schedule: Q01DX001 (ip), vehicle: Klucel (hydroxypropylcellulose) (HPC)): 6 of 6 | T/C (dose: 75.0 mg/kg/injection, schedule: Q01DX001 (ip), vehicle: other): 134 % of control | survivor count (dose: 100.0 mg/kg/injection, schedule: Q01DX001 (ip), vehicle: Klucel (hydroxypropylcellulose) (HPC)): 6 of 6 | survivor count (dose: 200.0 mg/kg/injection, schedule: Q01DX001 (ip), vehicle: Klucel (hydroxypropylcellulose) (HPC)): 6 of 6 | survivor count (dose: 200.0 mg/kg/injection, schedule: Q01DX009 (ip), vehicle: Klucel (hydroxypropylcellulose) (HPC)): 1 of 6 | survivor count [4]: 2 of 6 | survivor count (dose: 400.0 mg/kg/injection, schedule: Q01DX001 (ip), vehicle: Klucel (hydroxypropylcellulose) (HPC)): 6 of 6

CC(=O)CC(=O)CF.CC(=O)CC(=O)CF.[Cu]
survivor count (dose: 6.0 mg/kg/injection, schedule: Q01DX001 (ip), vehicle: saline): 3 of 6 | survivor count [5]: 0 of 6 | survivor count (dose: 100.0 mg/kg/injection, schedule: Q01DX001 (ip), vehicle: saline): 0 of 6 | survivor count [6]: 0 of 6

C=C(C)C1CNC(C(=O)O)C1CC(=O)O (stereo unspecified)
survivor count (dose: 25.0 mg/kg/injection, schedule: Q01DX009 (ip), vehicle: saline sonified): 3 of 6

C/C=C/C[P+](Cc1ccccc1)(c1ccccc1)c1ccccc1
survivor count (dose: 6.25 mg/kg/injection, schedule: Q01DX009 (ip), vehicle: saline with Tween-80): 1 of 3 | survivor count (dose: 25.0 mg/kg/injection, schedule: Q01DX009 (ip), vehicle: saline with Tween-80): 0 of 3 | survivor count (dose: 50.0 mg/kg/injection, schedule: Q01DX009 (ip), vehicle: saline with Tween-80): 0 of 3 | survivor count (dose: 100.0 mg/kg/injection, schedule: Q01DX009 (ip), vehicle: saline with Tween-80): 0 of 3 | survivor count (dose: 200.0 mg/kg/injection, schedule: Q01DX009 (ip), vehicle: saline with Tween-80): 0 of 3

C[N+](C)(C)CC#N
survivor count (dose: 400.0 mg/kg/injection, schedule: Q04DX003 (ip), vehicle: saline): 3 of 6

C=CCc1cn(C2OC(COC(=O)c3ccccc3)C(OC(=O)c3ccccc3)C2OC(=O)c2ccccc2)c(=O)[nH]c1=O (stereo unspecified)
survivor count (dose: 100.0 mg/kg/injection, schedule: Q01DX005 (ip), vehicle: saline): 1 of 7 | survivor count [7]: 1 of 7

O=C(NC1CCCCC1)c1csnn1
survivor count (dose: 300.0 mg/kg/injection, schedule: Q01DX001 (ip), vehicle: other): 3 of 6

O=[N+]([O-])c1cc(F)c(F)cc1F
survivor count [1]: 0 of 6

CCc1ccc(NC(=S)NC(=O)/C=C/c2ccccc2)cc1
survivor count (dose: 200.0 mg/kg/injection, schedule: Q04DX003 (ip), vehicle: saline with Tween-80): 6 of 6

CCOC(=O)/C=C\CBr
survivor count [6]: 3 of 6 | survivor count [8]: 2 of 6

CC1(C)OC(CI)C(COS(C)(=O)=O)O1 (stereo unspecified)
T/C (dose: 173.0 mg/kg/injection, schedule: Q01DX001 (ip), vehicle: steroid suspending solution): 132 % of control [5 of 6 alive] | survivor count (dose: 266.0 mg/kg/injection, schedule: Q01DX001 (ip), vehicle: steroid suspending solution): 6 of 6 | survivor count (dose: 400.0 mg/kg/injection, schedule: Q01DX001 (ip), vehicle: steroid suspending solution): 5 of 6 | survivor count (dose: 600.0 mg/kg/injection, schedule: Q01DX001 (ip), vehicle: steroid suspending solution): 4 of 6

Cc1ccccc1[P+](Cc1ccccc1)(c1ccccc1)c1ccccc1
survivor count (dose: 40.0 mg/kg/injection, schedule: Q01DX001 (ip), vehicle: saline): 0 of 6 | survivor count (dose: 80.0 mg/kg/injection, schedule: Q01DX001 (ip), vehicle: saline): 0 of 6

Nc1nc(=O)c2[nH]cnc2n1O
survivor count (dose: 85.0 mg/kg/injection, schedule: Q01DX009 (ip), vehicle: saline): 2 of 6 | survivor count (dose: 125.0 mg/kg/injection, schedule: Q01DX009 (ip), vehicle: saline): 0 of 6 | survivor count (dose: 185.0 mg/kg/injection, schedule: Q01DX009 (ip), vehicle: saline): 0 of 6

CN=C(Nc1ccc(Cl)c(Cl)c1)C(C)C
survivor count (dose: 100.0 mg/kg/injection, schedule: Q04DX002 (ip), vehicle: DMSO): 2 of 3 and 3 of 3 | survivor count (dose: 200.0 mg/kg/injection, schedule: Q04DX002 (ip), vehicle: DMSO): 3 of 3 | survivor count (dose: 400.0 mg/kg/injection, schedule: Q04DX002 (ip), vehicle: DMSO): 3 of 3

O/C(=C/C(=S)S)c1cccs1
survivor count (dose: 6.25 mg/kg/injection, schedule: Q01DX009 (ip), vehicle: water): 2 of 6 | survivor count (dose: 12.5 mg/kg/injection, schedule: Q01DX009 (ip), vehicle: water): 3 of 6 | survivor count (dose: 25.0 mg/kg/injection, schedule: Q01DX009 (ip), vehicle: water): 0 of 6 | survivor count (dose: 50.0 mg/kg/injection, schedule: Q01DX009 (ip), vehicle: water): 0 of 6 | survivor count (dose: 100.0 mg/kg/injection, schedule: Q04DX003 (ip), vehicle: water): 0 of 6 | survivor count (dose: 200.0 mg/kg/injection, schedule: Q04DX003 (ip), vehicle: water): 0 of 6 | survivor count (dose: 400.0 mg/kg/injection, schedule: Q04DX003 (ip), vehicle: water): 0 of 6

O=C(O)COc1ccccc1O
survivor count (dose: 400.0 mg/kg/injection, schedule: Q01DX009 (ip), vehicle: saline with Tween-80): 0 of 6

S=c1[nH]nc(NC2CCCCC2)s1
survivor count (dose: 200.0 mg/kg/injection, schedule: Q01DX009 (ip), vehicle: other): 2 of 6 | survivor count (dose: 400.0 mg/kg/injection, schedule: Q01DX009 (ip), vehicle: other): 0 of 6

CCC[CH2][Pb]([CH2]CCC)([CH2]CCC)[O]C(=O)CCl
survivor count [2]: 4 of 6 | survivor count [3]: 0 of 6 | survivor count (dose: 50.0 mg/kg/injection, schedule: Q04DX003 (ip), vehicle: Klucel (hydroxypropylcellulose) (HPC)): 0 of 6 | survivor count (dose: 100.0 mg/kg/injection, schedule: Q04DX003 (ip), vehicle: Klucel (hydroxypropylcellulose) (HPC)): 1 of 6 | survivor count [4]: 0 of 6 | survivor count [1]: 0 of 6

NC(=S)NN=C1CCC1
survivor count [5]: 2 of 4 | survivor count [6]: 0 of 4 and 1 of 4 | survivor count [8]: 0 of 4

NC(=S)N=Nc1c(O)n(C2OC(CO)C(O)C(O)C2O)c2ccccc12 (stereo unspecified)
survivor count [7]: 3 of 3
